This test addresses HA-MG53(FL), full-length human MG53 (TRIM72) (human). Description: co-IP; HEK293 cells transfected with HA-MG53 (full length or deletion mutants) and Myc-DDK-tagged G3BP2 for 24 hr, MG132 (10 uM) for 16 hr; RIPA buffer lysate; IP with anti-HA magnetic beads, blot with anti-HA and anti-G3BP2.

Results are given in words; binding and its absence hold for the method and conditions named. Binding seen in cells or lysates may run through a third protein. Binding can be weak; no strength is given. Where a sequence is shown, tags or fusion partners need not be part of it.

B1: Myc-DDK-tagged G3BP2 (Ras GTPase-activating protein-binding protein 2) (protein, UniProt Q9UN86 1-482)
chain: MVMEKPSPLLVGREFVRQYYTLLNKAPEYLHRFYGRNSSYVHGGVDASGKPQEAVYGQNDIHHKVLSLNFSECHTKIRHVDAHATLSDGVVVQVMGLLSNSGQPERKFMQTFVLAPEGSVPNKFYVHNDMFRYEDEVFGDSEPELDEESEDEVEEEQEERQPSPEPVQENANSGYYEAHPVTNGIEEPLEESSHEPEPEPESETKTEELKPQVEEKNLEELEEKSTTPPPAEPVSLPQEPPKAFSWASVTSKNLPPSGTVSSSGIPPHVKAPVSQPRVEAKPEVQSQPPRVREQRPRERPGFPPRGPRPGRGDMEQNDSDNRRIIRYPDSHQLFVGNLPHDIDENELKEFFMSFGNVVELRINTKGVGGKLPNFGFVVFDDSEPVQRILIAKPIMFRGEVRLNVEEKKTRAARERETRGGGDDRRDIRRNDRGPGGPRGIVGGGMMRDRDGRGPPPRGGMAQKLGSGRGTGQMEGRFTGQRR
Turning to B1, the binding entry is “binds”.

For the origin of these results see paper PMC8439062.
